Measured values taken from PubChem BioAssay AID588497 (NMMLSC, 2011).
In all, about 360,000 compounds went through this assay and about 780 (0.22%) were called active. The inconclusive results got no clear call from the source; some entries with a clear call stand among them for comparison. No stated cut-off is given here; in the data, active means inhibition above about 35% (passing the limit was not always enough); inconclusive means no clear call, values can overlap the other calls.

The compounds below were run on Botulinum neurotoxin type F light chain protease (Clostridium botulinum) (assay: BoNT/F light chain protease inhibitors, primary screen, biochemical, flow cytometry, MLPCN library (AID 588497; further: plate controls were buffer without enzyme for full effect and enzyme alone for no effect)). Conditions: Multiplex microsphere protease cleavage assay, at 10 µM, active compounds read high.

SMILES	inhibition
Cc1cccc(Cl)c1OCCCn1ccnc1	inconclusive: 8.4%
CC1(C)Cc2c(c(N3CCOCC3)nc3sc4c(=O)[nH]cnc4c23)CS1	inconclusive: 9.7%
Cn1c(=O)c2c(nc(Oc3ccccc3N)n2C)n(C)c1=O	inconclusive: -17.2%
Cc1ccc(Cl)cc1NC(=S)N(C)N	inconclusive: 14.9%
Cn1cnc2cc(NCc3ccc(Cl)cc3)ccc21	inconclusive: -5%
N#CCCCc1cn(-c2nc3ccccc3s2)nn1	inactive: 4.6%
C1=C(c2ccccc2)Nc2nnnn2C1	inactive: -6.5%
C#CCOc1coc(COC(=O)c2ccccc2)cc1=O	inconclusive: -12%
COc1ccc2nc(N3CCCC3)[nH]c2c1	inactive: -2.2%
CC(C)(C)OC(=O)NCCC(=O)N/N=C/c1ccc2ncccc2c1	inconclusive: 56.4%
O=C(CSc1nnc(-c2ccccc2O)o1)N1CCc2ccccc2C1	inactive: -1.2%
Fc1ccc(-c2nnc3ccc(N4CCc5ccccc5C4)nn23)cc1	inactive: 1.2%
O=C(Nc1cc(F)ccc1F)N1CCN(c2ccnc3cc(Cl)ccc23)CC1	inconclusive: 66.1%
CCOc1ccc(/C(O)=C2/C(=O)C(=O)N(c3ncccn3)C2c2ccc(C)cc2)cc1 (configuration not stated)	inconclusive: -9.3%
CC(C)CCn1c2ccccc2c2cc(CC(N)=O)ccc21	inactive: -4%
COc1ccc(C2C3=C(CC(C)(C)CC3=O)N(C)C3=C2C(=O)CC(C)(C)C3)cc1OC	inconclusive: 1.3%
CC(=O)c1sc(NC(=O)c2ccc(C)cc2)nc1C	inconclusive: 33.9%
CCCCCC[N+](C)(C)CC/C=C1/c2ccccc2Sc2ccc(Cl)cc21	inconclusive: -43.7%
CCOC(=O)C(=CNNc1c(C)csc1C(=O)OC)C(=O)OCC	inactive: -5.8%
COc1cc(-c2nnc(COc3ccc(Cl)cc3C)o2)cc(OC)c1OC	inconclusive: 5.9%
COC(=O)[C@]1(C)N[C@H](CN(C)S(=O)(=O)c2ccc(-c3ccccc3)cc2)[C@@H]2C(=O)N(C)C(=O)[C@@H]21	inactive: 1.8%
Cc1cc(C)c(C(=O)/C=C/c2ccc(C(C)C)cc2)c(=O)[nH]1	inactive: 5.3%
CCC(C(=O)Nc1ccc(Cl)cc1)N1CCCC1=O (configuration not stated)	inconclusive: -14.9%

SMILES	inhibition
Cc1cc(=O)oc(C)c1C(=O)NCCN1CCOCC1	inactive: 0.7%
Cc1nc(NC(=O)CCN2C(=O)C3CC=CCC3C2=O)sc1C (configuration not stated)	inactive: 5.5%
Cc1ccc(C(=O)Nn2c(O)c(C=C3N=c4ccccc4=N3)sc2=S)cc1	active: 64.2%
Cc1onc(-c2ccccc2)c1CNC(=O)C1COc2ccccc2O1 (configuration not stated)	inconclusive: 42.5%
CN1C2C=CC(=O)C1C1C(=O)N(c3ccccc3)C(=O)C12 (configuration not stated)	inactive: -14%
CN1CCN(c2c([N+](=O)[O-])cnc3ccccc23)CC1	inconclusive: -2.7%
CCC(CC)C(=O)Nc1nnc(S(=O)(=O)Nc2ccccc2C)s1	inactive: -8.6%
CC(Nc1ccc(Cl)cc1)C(=O)NN (configuration not stated)	inconclusive: 84.9%
COc1cc(OC)c(N(C)S(=O)(=O)c2cccc(C(=O)NC3=NCCS3)c2)cc1Cl	inactive: -4.7%
COc1ccc(C)cc1S(=O)(=O)N(C)CC(=O)N1CCC(C(N)=O)CC1	inactive: 2%
Cc1ccc2nc(-c3ccccc3NC(=O)CCC(=O)O)c(=O)[nH]c2c1	inconclusive: 20.9%
COc1ccc(OCC(O)CN2CCOCC2)cc1 (configuration not stated)	inconclusive: 4%
O=C(COc1ccc(Br)cc1Br)NN1C(=O)c2ccccc2C1=O	inconclusive: -53.7%
Cc1ccnc(NS(=O)(=O)c2ccc(NC(=O)c3ccc(Cl)cc3[N+](=O)[O-])cc2)n1	inconclusive: 0%
CC(=O)N(Cc1cccnc1)Cc1cc2ccccc2[nH]c1=O	inactive: -1.5%
COc1ccc(C(=O)NCc2ccc3c(c2)cc(C)n3C)cc1	inactive: -82.5%
CCOc1ccc(-n2cnnn2)cc1S(=O)(=O)NCc1ccccc1	inactive: -6.5%
CCC(C)N(C(=O)COC(=O)COc1c(C)cc(C)cc1C)C1CCS(=O)(=O)C1 (configuration not stated)	inconclusive: 10.4%
Cc1ccc(C(=O)NC2CCCCNC2=O)cc1C (configuration not stated)	inconclusive: -21.5%
CCOC(=O)N1CCN(CC(=O)Nc2nnc(C(F)(F)F)s2)CC1	inconclusive: 21.3%
CCCCN1C2CCCC1CC(NC(=O)c1ccccc1Cl)C2 (configuration not stated)	inconclusive: 6.8%
COCCN(C(=O)COC(=O)c1nc(Cl)ccc1Cl)c1c(N)n(Cc2ccccc2)c(=O)[nH]c1=O	active: 45.6%
COc1ccc2c(c1)c(C(=O)CN1CCN(Cc3ccccc3)CC1)c(C)n2C	inconclusive: -6.7%

SMILES	inhibition
Cc1cccc(-n2c(C)nc3cc(C(=O)NCCN4CCOCC4)ccc32)c1	inactive: -3.4%
Cc1ccccc1CSc1nnc(NC(=O)C2COc3ccccc3O2)s1 (configuration not stated)	inactive: 4.2%
CN1CC(=O)N/C1=N\C(=O)Nc1ccc(O)cc1	inconclusive: -6.3%
CCCCNC(=O)N1CCN(c2ccccc2OCC)CC1	inactive: 0%
COc1ccc(Cl)cc1Nc1nc(N)c2ccccc2n1	inconclusive: -19.6%
O=C(CCc1ccccc1)Nc1ccc(NS(=O)(=O)c2ccccc2)cc1	inactive: 15.6%
COc1ccc(NC(C)C(=O)Nc2cccc(S(=O)(=O)N3CCOCC3)c2)cc1OC (configuration not stated)	inactive: 1.8%
CCn1c(=O)c([N+](=O)[O-])c(NCC2CCCO2)c2ccccc21 (configuration not stated)	inconclusive: 30.9%
Cc1ccc(Cn2nnc3c(=O)[nH]c(C4CCCN(C(=O)c5ccco5)C4)nc32)cc1 (configuration not stated)	inactive: -13.4%
O=C(Nc1cscc1S(=O)(=O)c1ccc(Cl)cc1)c1ccccc1Cl	inconclusive: -39.1%
Cc1ccc(N2C(=O)C(Cl)=C(N3CCCCCC3)C2=O)cc1	inconclusive: -42.7%
Cc1cc(Nc2ccccc2)nc(N2CCOCC2)n1	inactive: -13.6%
O=C(O)c1ccc(Cn2cc(Cl)cn2)cc1	inconclusive: -15%
C[C@@H]1CN(C(=O)c2nc3ccc(Cl)cn3c2CN(C)CCc2cnn(C)c2)C[C@H](C)O1	inactive: -3%
N#CC1=C(N)Oc2cc(O)ccc2C1c1ccc(Br)s1 (configuration not stated)	inconclusive: 19.5%
CCCC(=O)NC(=S)Nc1cc(-c2nc3ncccc3o2)ccc1C	inconclusive: 124%
Cc1cc(NC(=O)CSc2nnc(-c3ccncc3)n2Cc2ccccc2)n(-c2ccccc2)n1	inconclusive: -33.6%
CC1(C)Cc2c(C#N)c(SCCC#N)nc(N3CCOCC3)c2CO1	inconclusive: -41.5%
COc1ccc(C(=O)Nc2c(O)ccc3ccccc23)cc1OC	inconclusive: -16.2%
COc1ccc(NS(=O)(=O)c2cccc(C(=O)NCCCN3CCOCC3)c2)cc1	inconclusive: -2.8%
CC(=O)N(CCC(c1ccco1)C(C)C)Cc1ccc(OC(C)C)cc1 (configuration not stated)	inconclusive: 15.6%
O=S1(=O)N=C(N2CCN(Cc3ccc4c(c3)OCO4)CC2)c2ccccc21	inactive: -12.7%
N#Cc1c(-c2ccccc2)cc(-c2ccc3c(c2)OCO3)[nH]c1=O	inactive: 0.1%

SMILES	inhibition
OCCC1CN(Cc2cccc(F)c2F)CCN1CCc1ccccc1 (configuration not stated)	inconclusive: 11.1%
Cc1ccc(S(=O)(=O)N2CCCC(N3CCOCC3)C2)cc1Cl (configuration not stated)	inconclusive: 40.1%
COc1ccc(C)cc1N(CC(=O)O)S(=O)(=O)c1ccc(C)cc1	inconclusive: 22.4%
CCOC(=O)c1cnc(-n2nc(C)cc2C)nc1NC	inconclusive: -16.6%
C=CCN(CC=C)S(=O)(=O)c1ccc(C(=O)Nc2nc3c(s2)CCc2ccccc2-3)cc1	inactive: -8.2%
O=[N+]([O-])c1cccnc1NCCc1c[nH]c2ccccc12	inactive: -4.8%
CC(=O)N(CCC1(C(C)C)CCOC(C)(C)C1)C(C)c1cccs1 (configuration not stated)	inconclusive: 20%
COc1ccc(C2N3CC4(C)CN2CC(C)(C3)C4O)cc1OC (configuration not stated)	inconclusive: -40.7%
Cc1ccc2cc(-c3noc(C4CCCCC4)n3)c(=O)[nH]c2c1	inactive: 3.7%
COc1ccc(OC)c(C2=NOC(C(=O)Nc3cccc(C(C)=O)c3)C2)c1 (configuration not stated)	inactive: 1.8%
CC(OC(=O)Cn1[nH]c(=O)c2ccccc2c1=O)C(=O)Nc1cccc(Cl)c1 (configuration not stated)	inconclusive: 6.9%
CC(=O)c1cccc(NC(=O)N2CCCC2C(=O)NCCc2ccccc2)c1 (configuration not stated)	active: 35.3%
Cc1cccc(NC(=O)CNC(=O)[C@H]2O[C@@H](n3ccc(=O)[nH]c3=O)[C@H](O)[C@@H]2O)c1C	inactive: -6.8%
CCCCCn1c(=O)c(C(=O)Nc2ccccc2N)c(O)c2ccccc21	inconclusive: -0.1%
O=C(Oc1oc(-c2ccco2)nc1C=Nc1ccccc1)c1ccco1	inconclusive: 8.1%
Fc1ccc(NC(=S)N2CCCC(c3ccccc3)=N2)cc1	inconclusive: -83.3%
COc1ccc(/C=N/NC(=O)c2ccc(NS(=O)(=O)c3cccs3)cc2)cc1	inactive: 0.4%
O=C1CSC(c2ccccc2)N1c1ccc([N+](=O)[O-])cc1 (configuration not stated)	inconclusive: 1.3%
CC(=O)C1C(c2ccc([N+](=O)[O-])cc2)c2c(noc2C)CC1(C)O (configuration not stated)	inconclusive: 1.5%
O=c1c(Cc2ccc(Cl)cc2)c(O)ccn1Cc1ccncc1	inactive: 3.2%
COCCNC(=O)C1(C)CCCN(C(=O)COc2ccccc2)C1 (configuration not stated)	inactive: 1.1%
O=C1NC(c2ccc(F)cc2)Oc2ccccc21 (configuration not stated)	inconclusive: -1.9%
O=[N+]([O-])c1cc(-c2ccc(/C=N\n3cnnc3)o2)cc([N+](=O)[O-])c1	inactive: -37.2%

4 of these compounds, set out differently.
Cc1cc(C)c(C(=O)/C=C/c2ccc(C(C)C)cc2)c(=O)[nH]1
  inhibition: inactive: 5.3%
Cc1cc(=O)oc(C)c1C(=O)NCCN1CCOCC1
  inhibition: inactive: 0.7%
O=C(Oc1oc(-c2ccco2)nc1C=Nc1ccccc1)c1ccco1
  inhibition: inconclusive: 8.1%
O=c1c(Cc2ccc(Cl)cc2)c(O)ccn1Cc1ccncc1
  inhibition: inactive: 3.2%
